In test [1] the target is Flag-tagged VPS28 (UniProt Q9UK41). The test can be described thus: co-IP.
The target of test [2] is myc-tagged SARS-CoV-2 M (SARS-CoV-2) (UniProt P0DTC5). The test can be described thus: co-IP.
The target in test [3] is Bril-M of HCoV-HKU1 (HCoV-HKU1) (UniProt Q5MQC7). The test can be described thus: pull-down; only the target purified.
Test [4] addresses Bril-tagged SARS-CoV-2 M (SARS-CoV-2) (UniProt P0DTC5). The test can be described thus: pull-down; only the target purified.
The target of test [5] is Bril-M of HCoV-OC43 (HCoV-OC43) (UniProt Q01455). The test can be described thus: pull-down; only the target purified.
Test [6] deals with Bril-M of MERS-CoV (MERS-CoV) (UniProt K9N7A1). The test can be described thus: pull-down; only the target purified.

We go through 4 substances from PMC12153360.

These are yes or no findings as the source states them, for the method shown. Binding seen in cells or lysates may run through a third protein. Some results given as binding are weak or reduced against the parent protein; the word gives no strength.

Consider “myc-tagged SARS-CoV-2 M (from UniProt P0DTC5 1-222)”, for which the binding entry in test [1] is “binds”.

On to “Flag-tagged VPS28 (from UniProt Q9UK41 1-221)”, for which the binding result in test [2], in test [3], in test [4], in test [5] and in test [6] was “binds” each time.

As to “myc-tagged HCoV-HKU1 M (from UniProt Q5MQC7 1-223)”, the binding result in test [1] was “binds”.

For the substance “myc-tagged HCoV-OC43 M (from UniProt Q01455 1-230)”, the binding entry in test [1] was “binds”.
